± gives the standard deviation of the averaged measurements. This is one part of the list.
Compound: Nc1nc2c(ncn2[C@@H]2O[C@H](COP(=O)(O)OP(=O)(O)OP(=O)(O)O)[C@@H](O)[C@H]2O)c(=O)[nH]1 [guanosine triphosphate]
Experiment: NP40-soluble protein abundance relative to vehicle (solubility fold change) (ratio); higher = more soluble protein in presence of GTP
Method in brief: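 Crude Jurkat lysate, prepared by Dounce homogenisation, was exposed to eight concentrations from 0.1 to 10 mM for 10 min at room temperature and then 3 min at 37 °C. Solubilisation used 0.8% NP40 with benzonase for 60 min at 4 °C, followed by ultracentrifugation and TMT labelling of the supernatant for LC-MS/MS. After vsn normalisation of intensities, each value is the fold change against the detergent-processed vehicle within each replicate, across three independent experiments.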

Protein sequences, listed by entry. Tags and fused reporters are not part of them. Lines headed by an entry give the natural chain unless they say otherwise; changes in a name come on top.
UniProt O96028: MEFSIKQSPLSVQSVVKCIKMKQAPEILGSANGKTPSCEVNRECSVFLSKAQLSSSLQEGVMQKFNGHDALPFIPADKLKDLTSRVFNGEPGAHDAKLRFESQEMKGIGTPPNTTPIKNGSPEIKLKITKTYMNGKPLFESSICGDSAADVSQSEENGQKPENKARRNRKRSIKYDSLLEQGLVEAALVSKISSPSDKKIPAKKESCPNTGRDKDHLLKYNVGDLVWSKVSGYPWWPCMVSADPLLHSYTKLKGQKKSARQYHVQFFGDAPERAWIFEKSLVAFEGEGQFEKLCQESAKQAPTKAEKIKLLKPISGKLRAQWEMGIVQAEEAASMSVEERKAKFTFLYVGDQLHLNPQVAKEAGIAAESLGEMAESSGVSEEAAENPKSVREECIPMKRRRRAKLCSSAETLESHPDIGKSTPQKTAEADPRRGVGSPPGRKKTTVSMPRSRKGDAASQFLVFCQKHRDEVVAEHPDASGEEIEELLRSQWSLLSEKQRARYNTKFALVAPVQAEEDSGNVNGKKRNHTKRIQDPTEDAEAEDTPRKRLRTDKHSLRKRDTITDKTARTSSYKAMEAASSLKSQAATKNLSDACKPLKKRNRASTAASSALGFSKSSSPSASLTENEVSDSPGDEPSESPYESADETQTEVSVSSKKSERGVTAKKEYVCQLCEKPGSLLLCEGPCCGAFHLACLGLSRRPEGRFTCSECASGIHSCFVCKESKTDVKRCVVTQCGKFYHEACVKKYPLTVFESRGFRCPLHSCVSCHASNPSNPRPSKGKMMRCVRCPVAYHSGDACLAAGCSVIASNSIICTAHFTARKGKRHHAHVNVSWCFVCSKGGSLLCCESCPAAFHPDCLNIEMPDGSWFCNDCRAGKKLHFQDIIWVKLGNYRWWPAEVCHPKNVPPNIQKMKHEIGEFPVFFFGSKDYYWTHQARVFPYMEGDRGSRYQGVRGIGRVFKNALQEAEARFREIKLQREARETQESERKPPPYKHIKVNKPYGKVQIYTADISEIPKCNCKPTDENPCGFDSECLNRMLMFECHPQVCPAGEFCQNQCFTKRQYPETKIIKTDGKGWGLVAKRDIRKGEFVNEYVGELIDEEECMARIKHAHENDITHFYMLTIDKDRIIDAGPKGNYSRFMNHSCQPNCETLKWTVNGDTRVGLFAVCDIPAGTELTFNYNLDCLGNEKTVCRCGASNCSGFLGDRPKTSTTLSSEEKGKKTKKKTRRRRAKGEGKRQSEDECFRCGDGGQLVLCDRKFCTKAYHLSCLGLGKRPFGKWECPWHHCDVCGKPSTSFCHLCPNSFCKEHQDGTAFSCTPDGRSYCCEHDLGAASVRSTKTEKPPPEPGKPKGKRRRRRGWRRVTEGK
UniProt O76080: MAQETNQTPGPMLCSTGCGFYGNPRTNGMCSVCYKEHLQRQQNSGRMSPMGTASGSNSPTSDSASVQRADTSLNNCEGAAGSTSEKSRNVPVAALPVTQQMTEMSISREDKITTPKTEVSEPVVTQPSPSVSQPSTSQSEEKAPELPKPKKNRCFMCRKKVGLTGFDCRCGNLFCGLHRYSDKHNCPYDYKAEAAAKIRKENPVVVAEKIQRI
UniProt O95239: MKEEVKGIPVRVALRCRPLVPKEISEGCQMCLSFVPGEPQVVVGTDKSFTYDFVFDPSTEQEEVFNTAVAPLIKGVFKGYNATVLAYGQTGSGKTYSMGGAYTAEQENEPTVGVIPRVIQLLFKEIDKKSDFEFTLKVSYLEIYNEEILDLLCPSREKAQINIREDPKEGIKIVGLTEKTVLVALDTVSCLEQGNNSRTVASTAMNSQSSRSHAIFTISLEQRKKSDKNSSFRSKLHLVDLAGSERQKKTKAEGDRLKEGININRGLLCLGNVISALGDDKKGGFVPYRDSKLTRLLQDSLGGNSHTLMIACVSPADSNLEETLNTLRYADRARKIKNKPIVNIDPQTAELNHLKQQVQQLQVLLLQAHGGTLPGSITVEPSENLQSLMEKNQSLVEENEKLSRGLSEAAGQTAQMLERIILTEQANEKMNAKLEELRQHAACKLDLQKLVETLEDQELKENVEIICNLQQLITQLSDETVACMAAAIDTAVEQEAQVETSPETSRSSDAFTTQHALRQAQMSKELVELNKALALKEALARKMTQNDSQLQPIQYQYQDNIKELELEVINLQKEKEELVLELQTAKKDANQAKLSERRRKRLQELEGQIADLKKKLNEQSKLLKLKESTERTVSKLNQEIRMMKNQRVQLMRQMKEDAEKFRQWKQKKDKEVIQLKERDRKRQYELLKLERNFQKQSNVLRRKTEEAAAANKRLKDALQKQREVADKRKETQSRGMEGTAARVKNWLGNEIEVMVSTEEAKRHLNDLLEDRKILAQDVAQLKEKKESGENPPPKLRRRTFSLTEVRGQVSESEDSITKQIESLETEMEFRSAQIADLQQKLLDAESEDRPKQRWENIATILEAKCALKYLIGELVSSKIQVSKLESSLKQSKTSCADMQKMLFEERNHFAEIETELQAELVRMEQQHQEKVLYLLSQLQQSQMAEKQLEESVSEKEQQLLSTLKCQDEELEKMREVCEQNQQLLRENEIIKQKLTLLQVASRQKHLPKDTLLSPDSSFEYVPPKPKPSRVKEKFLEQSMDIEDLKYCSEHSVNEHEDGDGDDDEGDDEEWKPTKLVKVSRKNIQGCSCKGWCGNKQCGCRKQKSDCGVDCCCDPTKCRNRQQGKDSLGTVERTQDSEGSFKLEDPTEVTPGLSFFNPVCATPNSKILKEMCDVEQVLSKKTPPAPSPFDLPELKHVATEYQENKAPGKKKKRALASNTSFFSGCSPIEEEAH
UniProt O95202: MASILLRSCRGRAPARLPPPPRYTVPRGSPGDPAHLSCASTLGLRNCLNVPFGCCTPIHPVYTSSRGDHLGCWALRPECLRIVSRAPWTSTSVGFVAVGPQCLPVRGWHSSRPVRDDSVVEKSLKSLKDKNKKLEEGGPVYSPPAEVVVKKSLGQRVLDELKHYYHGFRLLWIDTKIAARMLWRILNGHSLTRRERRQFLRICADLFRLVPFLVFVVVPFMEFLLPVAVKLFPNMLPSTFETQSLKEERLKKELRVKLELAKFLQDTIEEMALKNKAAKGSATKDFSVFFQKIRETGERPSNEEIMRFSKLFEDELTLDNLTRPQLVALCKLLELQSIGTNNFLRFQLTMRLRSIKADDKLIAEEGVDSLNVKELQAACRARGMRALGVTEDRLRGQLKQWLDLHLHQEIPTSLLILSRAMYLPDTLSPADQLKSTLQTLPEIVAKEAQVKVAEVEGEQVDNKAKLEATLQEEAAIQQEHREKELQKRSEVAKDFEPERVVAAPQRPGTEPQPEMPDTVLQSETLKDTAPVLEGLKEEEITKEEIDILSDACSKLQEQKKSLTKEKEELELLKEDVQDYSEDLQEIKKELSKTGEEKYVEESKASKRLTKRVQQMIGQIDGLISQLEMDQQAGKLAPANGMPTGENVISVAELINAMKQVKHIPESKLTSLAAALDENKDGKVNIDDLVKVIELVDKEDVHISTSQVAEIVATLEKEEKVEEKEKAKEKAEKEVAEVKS
UniProt P04181: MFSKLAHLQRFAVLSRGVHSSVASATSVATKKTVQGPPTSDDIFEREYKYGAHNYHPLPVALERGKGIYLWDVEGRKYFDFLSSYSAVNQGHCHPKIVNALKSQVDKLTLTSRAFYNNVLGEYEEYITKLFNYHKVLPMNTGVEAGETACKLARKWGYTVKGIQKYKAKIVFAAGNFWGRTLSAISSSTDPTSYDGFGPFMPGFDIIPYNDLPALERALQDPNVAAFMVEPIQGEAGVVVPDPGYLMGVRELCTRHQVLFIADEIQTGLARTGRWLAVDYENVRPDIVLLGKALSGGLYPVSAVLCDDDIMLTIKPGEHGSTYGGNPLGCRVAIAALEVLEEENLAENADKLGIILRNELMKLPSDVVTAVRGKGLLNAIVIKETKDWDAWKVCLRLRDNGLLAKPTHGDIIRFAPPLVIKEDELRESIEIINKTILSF
UniProt O75165, whole entry: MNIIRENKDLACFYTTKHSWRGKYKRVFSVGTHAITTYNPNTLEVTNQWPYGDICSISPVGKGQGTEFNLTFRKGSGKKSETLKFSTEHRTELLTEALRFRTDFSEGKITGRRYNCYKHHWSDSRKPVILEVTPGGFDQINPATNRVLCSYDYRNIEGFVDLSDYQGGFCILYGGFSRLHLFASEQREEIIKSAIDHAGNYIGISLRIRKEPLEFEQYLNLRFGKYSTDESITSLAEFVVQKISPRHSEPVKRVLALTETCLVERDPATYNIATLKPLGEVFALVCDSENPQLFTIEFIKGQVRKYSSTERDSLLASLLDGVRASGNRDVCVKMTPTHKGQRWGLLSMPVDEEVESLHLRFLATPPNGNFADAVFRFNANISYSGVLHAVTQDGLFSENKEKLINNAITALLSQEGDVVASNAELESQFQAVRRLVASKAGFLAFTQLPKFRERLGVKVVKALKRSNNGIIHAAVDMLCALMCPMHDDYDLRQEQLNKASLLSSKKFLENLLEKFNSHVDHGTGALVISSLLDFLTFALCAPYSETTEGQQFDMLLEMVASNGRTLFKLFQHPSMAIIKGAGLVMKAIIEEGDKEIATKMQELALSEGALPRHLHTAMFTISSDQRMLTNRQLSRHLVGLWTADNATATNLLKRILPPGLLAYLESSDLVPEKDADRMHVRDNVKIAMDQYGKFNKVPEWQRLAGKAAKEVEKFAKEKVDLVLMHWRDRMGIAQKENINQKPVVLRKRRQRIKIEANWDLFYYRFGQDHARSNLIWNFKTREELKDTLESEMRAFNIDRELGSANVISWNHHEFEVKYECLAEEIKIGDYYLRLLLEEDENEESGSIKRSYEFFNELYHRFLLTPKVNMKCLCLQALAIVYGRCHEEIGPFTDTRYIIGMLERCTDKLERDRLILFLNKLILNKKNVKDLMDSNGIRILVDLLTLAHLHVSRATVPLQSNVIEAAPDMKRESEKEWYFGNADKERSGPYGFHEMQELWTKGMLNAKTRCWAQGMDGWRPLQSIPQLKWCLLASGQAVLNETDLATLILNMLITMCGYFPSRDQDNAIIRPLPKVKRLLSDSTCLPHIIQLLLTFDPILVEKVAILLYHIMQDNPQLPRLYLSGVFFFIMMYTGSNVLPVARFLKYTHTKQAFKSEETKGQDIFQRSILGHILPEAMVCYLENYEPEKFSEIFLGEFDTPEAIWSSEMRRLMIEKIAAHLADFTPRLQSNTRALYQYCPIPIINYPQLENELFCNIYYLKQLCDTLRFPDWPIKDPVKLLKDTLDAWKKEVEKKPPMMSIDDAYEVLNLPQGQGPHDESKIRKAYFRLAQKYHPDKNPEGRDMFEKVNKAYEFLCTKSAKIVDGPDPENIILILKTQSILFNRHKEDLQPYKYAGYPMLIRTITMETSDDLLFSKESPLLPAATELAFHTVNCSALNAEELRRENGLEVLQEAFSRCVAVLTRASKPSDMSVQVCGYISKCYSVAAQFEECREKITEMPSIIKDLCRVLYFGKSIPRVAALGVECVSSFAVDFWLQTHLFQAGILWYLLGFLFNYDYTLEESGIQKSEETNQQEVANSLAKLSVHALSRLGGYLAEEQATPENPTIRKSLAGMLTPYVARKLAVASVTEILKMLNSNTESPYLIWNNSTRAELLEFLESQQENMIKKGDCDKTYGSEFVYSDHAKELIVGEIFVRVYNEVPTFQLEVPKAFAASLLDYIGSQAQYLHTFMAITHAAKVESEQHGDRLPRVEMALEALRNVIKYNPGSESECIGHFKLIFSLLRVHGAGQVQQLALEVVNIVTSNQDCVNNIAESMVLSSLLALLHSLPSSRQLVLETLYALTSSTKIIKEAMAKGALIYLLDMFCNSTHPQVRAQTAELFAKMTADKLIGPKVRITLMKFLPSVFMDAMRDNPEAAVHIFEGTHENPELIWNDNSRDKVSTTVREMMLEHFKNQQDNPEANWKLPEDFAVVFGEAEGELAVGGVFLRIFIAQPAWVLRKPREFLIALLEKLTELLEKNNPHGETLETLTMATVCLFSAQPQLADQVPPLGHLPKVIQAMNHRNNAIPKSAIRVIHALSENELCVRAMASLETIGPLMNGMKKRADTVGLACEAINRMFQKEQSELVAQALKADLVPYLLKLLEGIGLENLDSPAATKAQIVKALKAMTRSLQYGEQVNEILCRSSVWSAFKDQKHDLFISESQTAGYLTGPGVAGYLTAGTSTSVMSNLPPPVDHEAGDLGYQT
UniProt P06729: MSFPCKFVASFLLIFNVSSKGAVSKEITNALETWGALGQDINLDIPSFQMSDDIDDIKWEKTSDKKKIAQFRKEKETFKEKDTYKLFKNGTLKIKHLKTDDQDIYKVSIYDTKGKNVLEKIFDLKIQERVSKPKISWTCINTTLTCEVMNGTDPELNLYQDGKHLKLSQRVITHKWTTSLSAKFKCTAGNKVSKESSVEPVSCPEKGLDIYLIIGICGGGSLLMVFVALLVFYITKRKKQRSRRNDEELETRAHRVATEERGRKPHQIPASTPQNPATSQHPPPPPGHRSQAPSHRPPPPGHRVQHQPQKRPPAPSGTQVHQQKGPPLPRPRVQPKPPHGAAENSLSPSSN

| Target | NP40-soluble protein abundance (concentration: 0.1mM) | NP40-soluble protein abundance (concentration: 0.5mM) | NP40-soluble protein abundance (concentration: 1mM) | NP40-soluble protein abundance (concentration: 2mM) | NP40-soluble protein abundance (concentration: 4mM) | NP40-soluble protein abundance (concentration: 6mM) | NP40-soluble protein abundance (concentration: 8mM) | NP40-soluble protein abundance (concentration: 10mM) |
| --- | --- | --- | --- | --- | --- | --- | --- | --- |
| GIGYF1 (UniProt O75420) | 1.01 ± 0.053 | 1.07 ± 0.2 | 1.03 ± 0.082 | 1.08 ± 0.049 | 1.17 ± 0.15 | 1.13 ± 0.12 | 1.002 ± 0.01 | 0.952 ± 0.062 |
| ERAL1 (UniProt O75616) | 1.07 ± 0.05 | 1.08 ± 0.068 | 1.08 ± 0.038 | 1.17 ± 0.14 | 1.23 ± 0.17 | 1.19 ± 0.14 | 1.13 ± 0.16 | 1.14 ± 0.08 |
| UniProt O75170 and related entries | 1 ± 0.15 | 0.979 ± 0.059 | 1.03 ± 0.12 | 1 ± 0.043 | 0.973 ± 0.071 | 0.992 ± 0.056 | 0.963 ± 0.065 | 1.05 ± 0.075 |
| UniProt O95861 and related entries | 0.944 ± 0.02 | 0.9416 ± 0.0021 | 0.875 ± 0.024 | 0.862 ± 0.035 | 0.839 ± 0.043 | 0.843 ± 0.05 | 0.812 ± 0.067 | 0.816 ± 0.07 |
| UniProt P06576 and related entries | 0.981 ± 0.023 | 1.02 ± 0.028 | 1.05 ± 0.025 | 1.04 ± 0.029 | 1.04 ± 0.035 | 1.06 ± 0.038 | 1.06 ± 0.074 | 1.05 ± 0.067 |
| UniProt O96028 and related entries | 1.04 ± 0.032 | 1.06 ± 0.049 | 1.19 ± 0.027 | 1.26 ± 0.027 | 1.44 ± 0.053 | 1.49 ± 0.047 | 1.59 ± 0.067 | 1.69 ± 0.062 |
| ZFAND5 (UniProt O76080) | 0.941 ± 0.063 | 0.8558 ± 0.0072 | 0.979 ± 0.051 | 0.983 ± 0.049 | 0.979 ± 0.086 | 0.999 ± 0.079 | 1.11 ± 0.056 | 1.064 ± 0.0088 |
| UniProt O75528 and related entries | 1.04 ± 0.072 | 0.978 ± 0.066 | 1.17 ± 0.15 | 1.15 ± 0.049 | 1.18 ± 0.12 | 1.2 ± 0.031 | 1.23 ± 0.14 | 1.32 ± 0.14 |
| KIF4A (UniProt O95239) | 1.01 ± 0.018 | 1.04 ± 0.021 | 1.016 ± 0.0075 | 1.01 ± 0.029 | 0.993 ± 0.018 | 1 ± 0.015 | 1.03 ± 0.037 | 1 ± 0.027 |
| LETM1 (UniProt O95202) | 0.897 ± 0.019 | 0.877 ± 0.033 | 0.959 ± 0.03 | 0.927 ± 0.065 | 0.939 ± 0.057 | 0.947 ± 0.069 | 0.964 ± 0.061 | 0.984 ± 0.044 |
| OAT (UniProt P04181) | 0.9948 ± 0.0051 | 1.02 ± 0.037 | 0.975 ± 0.04 | 0.954 ± 0.088 | 0.882 ± 0.14 | 0.881 ± 0.12 | 0.762 ± 0.067 | 0.825 ± 0.099 |
| UniProt O75947 | 0.949 ± 0.11 | 0.938 ± 0.068 | 1.1 ± 0.18 | 1.05 ± 0.091 | 1.04 ± 0.14 | 1.12 ± 0.1 | 1.14 ± 0.17 | 1.17 ± 0.2 |
| DNAJC13 (UniProt O75165) | 1.04 ± 0.025 | 1.025 ± 0.007 | 1.06 ± 0.19 | 1.0266 ± 0.00091 | 1.02 ± 0.042 | 1.15 ± 0.14 | 1.23 ± 0.12 | 1.1 ± 0.032 |
| UniProt P00390 and related entries | 0.962 ± 0.035 | 1 ± 0.042 | 0.895 ± 0.028 | 0.895 ± 0.06 | 0.849 ± 0.05 | 0.897 ± 0.044 | 0.845 ± 0.043 | 0.842 ± 0.072 |
| UniProt P06729 | 0.895 ± 0.023 | 0.902 ± 0.035 | 0.912 ± 0.02 | 0.88 ± 0.072 | 0.852 ± 0.038 | 0.89 ± 0.053 | 0.893 ± 0.036 | 0.903 ± 0.039 |

Given bar-delimited: entries from further up.
Target | NP40-soluble protein abundance (concentration: 0.1mM) | NP40-soluble protein abundance (concentration: 0.5mM) | NP40-soluble protein abundance (concentration: 1mM) | NP40-soluble protein abundance (concentration: 2mM) | NP40-soluble protein abundance (concentration: 4mM) | NP40-soluble protein abundance (concentration: 6mM) | NP40-soluble protein abundance (concentration: 8mM) | NP40-soluble protein abundance (concentration: 10mM)
DNAJC13 (UniProt O75165) | 1.04 ± 0.025 | 1.025 ± 0.007 | 1.06 ± 0.19 | 1.0266 ± 0.00091 | 1.02 ± 0.042 | 1.15 ± 0.14 | 1.23 ± 0.12 | 1.1 ± 0.032
UniProt P00390 and related entries | 0.962 ± 0.035 | 1 ± 0.042 | 0.895 ± 0.028 | 0.895 ± 0.06 | 0.849 ± 0.05 | 0.897 ± 0.044 | 0.845 ± 0.043 | 0.842 ± 0.072
UniProt P06729 | 0.895 ± 0.023 | 0.902 ± 0.035 | 0.912 ± 0.02 | 0.88 ± 0.072 | 0.852 ± 0.038 | 0.89 ± 0.053 | 0.893 ± 0.036 | 0.903 ± 0.039
